Test system: lambda bacteriophage DNA
Assay: qPCR amplification of DNA from citraconic anhydride-treated lambda bacteriophage

**Q.** Which results are given for CC1=CC(=O)OC1=O [citraconic anhydride]?
**A.** Average Cp (0.11 mM Cit, 50 copies/reaction): 32.36; Average Cp (0.11 mM Cit, 500 copies/reaction): 28.82; Average Cp (0.11 mM Cit, 5000 copies/reaction): 25.18; Average Cp (1.1 mM Cit, 50 copies/reaction): 32.24; Average Cp (1.1 mM Cit, 500 copies/reaction): 28.71; Average Cp (1.1 mM Cit, 5000 copies/reaction): 25.25; Average Cp (11 mM Cit, 50 copies/reaction): 31.19; Average Cp (11 mM Cit, 500 copies/reaction): 27.89; Average Cp (11 mM Cit, 5000 copies/reaction): 25.30; Ct compared with untreated phage (phage treated with 11 mM Cit): same Ct as untreated (active) phage
